Reference: PubChem BioAssay AID1159578 (Peter MacCallum Cancer Centre, 2015)
Assay: 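Knock-downs that alter how fast lymphatic endothelial cells migrate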 (primary screen). Cell system: human lymphatic endothelial cells. Knock-down reagent: siRNA pool against human genes, 40 nM. Timing: 48 h after transfection. Measured: 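Cells stained with dye and imaged after a scratch; covered wound area and nuclei counted, duplicates averaged, migration set against mock wells and turned into a robust z-score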. Scale: migration robust z-score: higher = faster migration into the scratch; migration relative to mock: higher = more scratch area covered than mock; nuclei per well: higher = more cells in the well. Rule for the call: 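Pools averaging fewer than 3300 nuclei are never called; remaining pools count as changed when migration robust z lies outside -2 to 2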. Calls: active = migration changed; inactive = no migration change, or too few cells.
Here is a random part of about 18,000 reagents tested. Over the whole deposit, about 1,030 (5.7%) got an active call. 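Inactive calls also include pools with fewer than 3300 nuclei, whose migration was not assessed.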 The raw values are shown without normalisation. Reagent sequences are not shown.

no.	target	migration robust z-score	migration class with cell-count check	migration relative to mock	nuclei per well, duplicate mean	Call
1	PPP2R5A (GeneID 5525)	0.31	migration z between -2 and 2; enough cells	0.86	5200	inactive
2	MCCC1 (GeneID 56922)	-0.18	migration z between -2 and 2; enough cells	0.77	6136	inactive
3	LINC02872 (GeneID 401535)	1.86	migration z between -2 and 2; enough cells	1.36	5392	inactive
4	GATA6 (GeneID 2627)	1.19	migration z between -2 and 2; enough cells	1.03	6138	inactive
5	TMEM260 (GeneID 54916)	0.26	migration z between -2 and 2; enough cells	0.96	5258	inactive
6	APOBEC3C (GeneID 27350)	-0.54	migration z between -2 and 2; enough cells	0.74	6162	inactive
7	CYC1 (GeneID 1537)	-0.47	migration z between -2 and 2; enough cells	0.72	6960	inactive
8	CABYR (GeneID 26256)	1.08	migration z between -2 and 2; enough cells	1.16	4925	inactive
9	C16orf82 (GeneID 162083)	1.04	migration z between -2 and 2; enough cells	1.16	5786	inactive
10	RHD (GeneID 6007)	0.55	migration z between -2 and 2; enough cells	0.91	5420	inactive
11	QSOX2 (GeneID 169714)	-1.71	migration z between -2 and 2; enough cells	0.48	5689	inactive
12	RECQL (GeneID 5965)	2.18	migration z above 2; enough cells	1.23	4790	active
13	COPS6 (GeneID 10980)	-0.14	migration z between -2 and 2; enough cells	0.85	5520	inactive
14	SOX30 (GeneID 11063)	1.14	migration z between -2 and 2; enough cells	1.18	5884	inactive
15	SLC29A2 (GeneID 3177)	-0.08	migration z between -2 and 2; enough cells	0.79	5258	inactive
16	ZNHIT6 (GeneID 54680)	-1.69	migration z between -2 and 2; enough cells	0.44	4992	inactive
17	ADAMTSL3 (GeneID 57188)	0.56	migration z between -2 and 2; enough cells	1.03	6404	inactive
18	ANKFN1 (GeneID 162282)	-0.25	migration z between -2 and 2; enough cells	0.82	5177	inactive
19	OR6V1 (GeneID 346517)	0.69	migration z between -2 and 2; enough cells	1.06	5670	inactive
20	PDE4C (GeneID 5143)	0.8	migration z between -2 and 2; enough cells	0.96	6825	inactive
21	PLCXD3 (GeneID 345557)	0.11	migration z between -2 and 2; enough cells	0.91	5907	inactive
22	AAGAB (GeneID 79719)	1.01	migration z between -2 and 2; enough cells	1.15	5614	inactive
23	FAM47C (GeneID 442444)	0.12	migration z between -2 and 2; enough cells	0.91	6209	inactive
24	P2RX7 (GeneID 5027)	0.96	migration z between -2 and 2; enough cells	0.99	5128	inactive
25	TNFRSF21 (GeneID 27242)	0.2	migration z between -2 and 2; enough cells	0.94	5890	inactive
26	KCNS3 (GeneID 3790)	-0.28	migration z between -2 and 2; enough cells	0.75	5472	inactive
27	LRGUK (GeneID 136332)	1.4	migration z between -2 and 2; enough cells	1.25	5533	inactive
28	BCAS3 (GeneID 54828)	0.68	migration z between -2 and 2; enough cells	1.06	6090	inactive
29	ROM1 (GeneID 6094)	-0.02	migration z between -2 and 2; enough cells	0.8	5592	inactive
30	SLA2 (GeneID 84174)	-0.34	migration z between -2 and 2; enough cells	0.8	5683	inactive
31	SLC14A2 (GeneID 8170)	1.82	migration z between -2 and 2; enough cells	1.16	6136	inactive
32	FOXD3 (GeneID 27022)	-0.31	migration z between -2 and 2; enough cells	0.74	5765	inactive
33	ARHGDIB (GeneID 397)	0.67	migration z between -2 and 2; enough cells	0.94	5562	inactive
34	TAOK1 (GeneID 57551)	-0.08	migration z between -2 and 2; enough cells	0.79	6904	inactive
35	AP1S3 (GeneID 130340)	0.56	migration z between -2 and 2; enough cells	1.03	6354	inactive

As entered above.
Under “nuclei per well, duplicate mean”, GATA6 (GeneID 2627) is entered as 6138
ROM1 (GeneID 6094), nuclei per well, duplicate mean = 5592
For “nuclei per well, duplicate mean”, KCNS3 (GeneID 3790) has 5472

Further reagents:
no.	target	migration robust z-score	migration class with cell-count check	migration relative to mock	nuclei per well, duplicate mean	Call
36	MPND (GeneID 84954)	0.02	migration z between -2 and 2; enough cells	0.89	4566	inactive
37	FEM1A (GeneID 55527)	-0.18	migration z between -2 and 2; enough cells	0.84	5462	inactive
38	DDHD2 (GeneID 23259)	-0.66	migration z between -2 and 2; enough cells	0.71	4927	inactive
39	CPAMD8 (GeneID 27151)	-0.43	migration z between -2 and 2; enough cells	0.77	4336	inactive
40	EXOSC3 (GeneID 51010)	0.34	migration z between -2 and 2; enough cells	0.97	6426	inactive
41	TGM3 (GeneID 7053)	-0.54	migration z between -2 and 2; enough cells	0.7	5056	inactive
42	VASH1 (GeneID 22846)	0.42	migration z between -2 and 2; enough cells	1	6512	inactive
43	ABCC10 (GeneID 89845)	0.46	migration z between -2 and 2; enough cells	0.9	5006	inactive
44	RSF1 (GeneID 51773)	0.57	migration z between -2 and 2; enough cells	0.92	6490	inactive
45	HNRNPH2 (GeneID 3188)	-0.92	migration z between -2 and 2; enough cells	0.64	5199	inactive
46	P3H1 (GeneID 64175)	0.42	migration z between -2 and 2; enough cells	0.88	6140	inactive
47	CTRB1 (GeneID 1504)	-1.09	migration z between -2 and 2; enough cells	0.6	6506	inactive
48	SPINK4 (GeneID 27290)	-0.6	migration z between -2 and 2; enough cells	0.73	4631	inactive
49	INSYN1 (GeneID 388135)	-0.16	migration z between -2 and 2; enough cells	0.84	5382	inactive
50	ABRAXAS1 (GeneID 84142)	-1.81	migration z between -2 and 2; enough cells	0.42	7179	inactive
51	KIRREL3 (GeneID 84623)	1.38	migration z between -2 and 2; enough cells	1.25	5326	inactive
52	SLC25A30 (GeneID 253512)	1	migration z between -2 and 2; enough cells	1.14	5302	inactive
53	TBC1D24 (GeneID 57465)	-3.36	migration z below -2; enough cells	0.02	4896	active
54	OSBPL10 (GeneID 114884)	0.78	migration z between -2 and 2; enough cells	1.09	5845	inactive
55	HLA-DRB5 (GeneID 3127)	0.02	migration z between -2 and 2; enough cells	0.89	4910	inactive
56	PELI2 (GeneID 57161)	-0.22	migration z between -2 and 2; enough cells	0.82	5070	inactive
57	DMWD (GeneID 1762)	0.72	migration z between -2 and 2; enough cells	1.07	5972	inactive
